Among the data in PubChem BioAssay AID2810 (NMMLSC, 2010) are double positive events and percent response (vesicle binding) values, retold here.

SMILES strings stand for the structures. The list shows a part of the results. These are further read-outs of the screen, such as a control signal, another cell line or another target. No call is given for them.

The assay in a line: modulators of CD8 T cell-vesicle binding, confirmation, cherry-picked primary hits, two concentrations (AID 2810).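 For all read-outs here: lower values mean blocking of vesicle binding.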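 For percent response (vesicle binding): ratio of mean FL2 vesicle stain of CD8+ cells to that row's control.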 Particulars: 2C CD8+ T cell-vesicle binding, flow cytometry; for double positive events: CD8+/vesicle+ events. On the technique in general: Flow cytometry measures light scatter and fluorescence of single cells or particles in a stream.
Where [1] appears, read: at 15.4 µM, stronger effect = lower value.

For `CSc1nc2cc(C)nn2c(-c2ccccc2Cl)c1C#N`, the double positive events reads like this: (at 7.7 µM) 16.8%; under setting [1], 15.5%. This compound also had a percent response (vesicle binding) (at 7.7 µM) of 412%.
For `Cn1c(=O)oc2cc(S(=O)(=O)NCc3ccccc3)ccc21` the same measures were 28.2%, 10.3% and 269%.
For `COc1ccc(NS(=O)(=O)c2ccc(-c3ccccn3)s2)cc1` the same measures were 10.4%, 30.6% and 439%.
For `O=C(NC1CCCC1)C1CCCN1C(=O)Nc1ccc(Cl)cc1` (stereo unspecified) the same measures were 17.3%, 13% and 225%.
Take `CN(CC(=O)NCc1ccc2c(c1)OCO2)CC(=O)Nc1ccc(F)c(F)c1F`: under “at 7.7 µM”, the double positive events came out at 10.4% and the percent response (vesicle binding) amounted to 126%. Moreover, under setting [1], the double positive events is 22%.
Under “at 7.7 µM”, `CCOc1ccc(NC(=O)CN(C)C(=O)c2ccc(N3CCOCC3)c([N+](=O)[O-])c2)cc1OCC` returned a double positive events of 18.2% and a percent response (vesicle binding) of 152%. The compound also gave a double positive events under setting [1] of 10.1%.
For `Nn1c(SCC(=O)Nc2c(F)cc(F)cc2Br)nnc1C1CCCCC1` the same measures were 18.2%, 162% and 6.6%.
For `CC(OC(=O)C1CC1)C(=O)Nc1cc(Cl)cc(Cl)c1` (stereo unspecified) the same measures were 39.8%, 280% and 23%.
With `COc1ccc(OC)c(/C=C/C(=O)Nc2cccc(S(=O)(=O)NC3=NCCCCC3)c2)c1`, the double positive events reads like this: (at 7.7 µM) 16.3%; under setting [1], 13%. Moreover, the percent response (vesicle binding) (at 7.7 µM) was 140%.
For `O=C(c1cc(-c2ccncc2)nc2ccccc12)N1CCN(c2ncccn2)CC1` the same measures were 13.2%, 30.8% and 202%.
Where the note is “at 7.7 µM”, `CCCCOc1ccc(C(=O)NCC(=O)N2CCN(C(=O)c3ccco3)CC2)cc1` came in with a double positive events of 9.9% and a percent response (vesicle binding) of 252%. The double positive events under setting [1] was found to be 24.1%.
For `O=C(C1CCN(S(=O)(=O)c2cnc[nH]2)CC1)N1CCN(c2ncccn2)CC1` the same measures were 10%, 303% and 42.9%.
For `O=C(CNS(=O)(=O)c1ccc(Cl)c(C(F)(F)F)c1)NC1CCCCCC1` the same measures were 40.1%, 221% and 31%.
For `CCCCOC(=O)c1ccc(NC(=O)C(=O)NCc2ccncc2)cc1` the same measures were 20.5%, 192% and 27.2%.
With `Cc1cc(C)c2c(n1)sc1c(-c3ccccc3)c(C#N)c(N)nc12`, under “at 7.7 µM”, the double positive events stood at 9.7% and the percent response (vesicle binding) amounted to 183%. For the same compound, the double positive events under setting [1] is 23.9%.
For `COc1ccc(CN(C)C(=O)CNC(=O)c2cccs2)c(OC)c1` the same measures were 9.5%, 77.5% and 26.5%.
For `CN(c1ccccc1)S(=O)(=O)c1cccc(NC(=O)c2cccc(C#N)c2)c1` the same measures were 35.2%, 383% and 26.7%.
For `COc1ccc(C(=O)NCC(O)COc2ccc(C(C)(C)C)cc2)cc1[N+](=O)[O-]` (stereo unspecified) the same measures were 23.1%, 183% and 11.7%.
As for `CCOc1ccccc1N1CCN(C(=O)c2ccc3[nH]c(C)c(C)c3c2)CC1`, for the setting “at 7.7 µM”, the double positive events was found to be 25.6% and the percent response (vesicle binding) was determined as 277%. This compound gave a double positive events under setting [1] of 17.4%.
On to `CC1CCc2c(C(=O)Nc3ccc(OC(F)(F)F)cc3)csc2C1` (stereo unspecified), for which, where the note is “at 7.7 µM”, the double positive events stood at 33.5% and the percent response (vesicle binding) turned out to be 215%. In addition, the double positive events under setting [1] was found to be 20.5%.
For `Cc1c(OCC(=O)NC(Cc2ccc(Cl)cc2)C(=O)O)ccc2c(-c3ccccc3)cc(=O)oc12` (stereo unspecified) the same measures were 11.8%, 158% and 8.2%.
For `COCCCn1c(=O)c2ccccc2n(Cc2ccc(C)cc2)c1=O` the same measures were 8.9%, 240% and 23%.
